This note sets out measurements from PMC10778480.

No constants are given. Whether binding was seen depends on the method and setting. In cells and extracts the contact can be indirect. Some results given as binding are weak or reduced against the parent protein; the word gives no strength.

The experiment addresses Beclin1 (BECN1) (human (endogenous in T24/DDP)), Q14457. Put plainly: co-IP; lysate of T24/DDP cells (RIPA lysis buffer); anti-Flag beads at 4 °C overnight, or antibody for 4-6 h then Protein A/G beads overnight; washed three times with cold lysis buffer; which protein was precipitated not given. To be noted: remark: other sources report otherwise.

B1: Sirtuin 1 (SIRT1), Q96EB6 1-747 (enzyme)
chain: MADEAALALQPGGSPSAAGADREAASSPAGEPLRKRPRRDGPGLERSPGEPGGAAPEREVPAAARGCPGAAAAALWREAEAEAAAAGGEQEAQATAAAGEGDNGPGLQGPSREPPLADNLYDEDDDDEGEEEEEAAAAAIGYRDNLLFGDEIITNGFHSCESDEEDRASHASSSDWTPRPRIGPYTFVQQHLMIGTDPRTILKDLLPETIPPPELDDMTLWQIVINILSEPPKRKKRKDINTIEDAVKLLQECKKIIVLTGAGVSVSCGIPDFRSRDGIYARLAVDFPDLPDPQAMFDIEYFRKDPRPFFKFAKEIYPGQFQPSLCHKFIALSDKEGKLLRNYTQNIDTLEQVAGIQRIIQCHGSFATASCLICKYKVDCEAVRGDIFNQVVPRCPRCPADEPLAIMKPEIVFFGENLPEQFHRAMKYDKDEVDLLIVIGSSLKVRPVALIPSSIPHEVPQILINREPLPHLHFDVELLGDCDVIINELCHRLGGEYAKLCCNPVKLSEITEKPPRTQKELAYLSELPPTPLHVSEDSSSPERTSPPDSSVIVTLLDQAAKSNDDLDVSESKGCMEEKPQEVQTSRNVESIAEQMENPDLKNVGSSTGEKNERTSVAGTVRKCWPNRVAKEQISRRLDGNQYLFLPPNRYIFHGAEVYSDSEDDVLSSSSCGSNSDSGTCQSPSLEEPMEDESEIEEFYNGLEDEPDVPERAGGAGFGTDGDDQEAINEAISVKQEVTDMNYPSNKS
Consider B1, for which the binding entry is given as “binds”.
